Article PMC9851909, “Structure of a volume-regulated heteromeric LRRC8A/C channel” (Nature Structural & Molecular Biology, 2022)
Results are given in words; binding and its absence hold for the method and conditions named. In cells and extracts the contact can be indirect. Here binding means that the protein was enriched with, or labelled near, the bait; the list need not be complete.

Chains of the proteins cited; added tags and fusions are not shown.
UniProt Q8IWT6: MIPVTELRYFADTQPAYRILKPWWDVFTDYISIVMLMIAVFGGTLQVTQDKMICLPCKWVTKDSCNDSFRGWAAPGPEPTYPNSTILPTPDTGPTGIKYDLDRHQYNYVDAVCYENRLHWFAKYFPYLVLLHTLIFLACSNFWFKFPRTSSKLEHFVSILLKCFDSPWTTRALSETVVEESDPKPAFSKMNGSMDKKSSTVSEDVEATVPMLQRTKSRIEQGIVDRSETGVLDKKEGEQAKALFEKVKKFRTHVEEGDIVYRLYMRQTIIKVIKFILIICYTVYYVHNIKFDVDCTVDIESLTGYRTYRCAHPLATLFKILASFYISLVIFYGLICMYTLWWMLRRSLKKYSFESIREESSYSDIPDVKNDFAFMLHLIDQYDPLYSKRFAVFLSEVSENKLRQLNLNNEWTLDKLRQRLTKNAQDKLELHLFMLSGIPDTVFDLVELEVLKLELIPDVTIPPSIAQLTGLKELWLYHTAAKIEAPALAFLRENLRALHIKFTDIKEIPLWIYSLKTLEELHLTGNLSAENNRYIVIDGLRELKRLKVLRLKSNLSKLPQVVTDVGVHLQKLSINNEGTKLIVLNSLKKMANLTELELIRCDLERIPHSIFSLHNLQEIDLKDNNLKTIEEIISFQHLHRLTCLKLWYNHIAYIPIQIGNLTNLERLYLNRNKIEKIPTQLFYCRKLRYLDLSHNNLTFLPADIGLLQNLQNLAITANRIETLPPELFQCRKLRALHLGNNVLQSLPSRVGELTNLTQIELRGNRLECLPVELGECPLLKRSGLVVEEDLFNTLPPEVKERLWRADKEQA
UniProt Q6NSJ5: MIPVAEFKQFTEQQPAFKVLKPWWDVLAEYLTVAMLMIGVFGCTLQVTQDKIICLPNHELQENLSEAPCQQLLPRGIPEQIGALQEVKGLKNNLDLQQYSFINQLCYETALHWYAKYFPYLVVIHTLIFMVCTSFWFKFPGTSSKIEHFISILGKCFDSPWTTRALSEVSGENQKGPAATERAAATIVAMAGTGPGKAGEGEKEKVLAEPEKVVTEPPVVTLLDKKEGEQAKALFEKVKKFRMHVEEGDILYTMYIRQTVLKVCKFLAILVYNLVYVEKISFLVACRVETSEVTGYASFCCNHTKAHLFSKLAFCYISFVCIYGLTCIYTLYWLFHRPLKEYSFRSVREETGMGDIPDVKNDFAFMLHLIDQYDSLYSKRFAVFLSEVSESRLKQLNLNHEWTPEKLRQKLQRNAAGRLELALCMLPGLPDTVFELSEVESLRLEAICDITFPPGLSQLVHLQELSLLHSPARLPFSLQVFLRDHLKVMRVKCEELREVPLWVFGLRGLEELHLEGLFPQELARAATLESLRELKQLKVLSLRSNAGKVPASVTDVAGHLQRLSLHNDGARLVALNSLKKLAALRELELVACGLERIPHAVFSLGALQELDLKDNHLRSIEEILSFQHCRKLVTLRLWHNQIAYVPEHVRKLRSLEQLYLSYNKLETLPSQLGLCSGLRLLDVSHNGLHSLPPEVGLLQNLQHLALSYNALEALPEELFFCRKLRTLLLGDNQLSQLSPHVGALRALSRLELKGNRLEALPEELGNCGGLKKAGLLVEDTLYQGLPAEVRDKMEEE

Target: endogenous LRRC8A of HEK293 cells (human (endogenous in HEK293T)) (UniProt Q8IWT6)
Test: affinity purification with mass spectrometry; pairs of endogenous LRRC8 subunits in the channels isolated on SBP-tagged Sb1 from HEK293T (WT) or LRRC8^B,D,E-/- cells; shotgun LC-MS/MS and absolute quantification with two isotope-labelled reference peptides per subunit

binding: binds
Substance: endogenous LRRC8E of HEK293 cells (from UniProt Q6NSJ5 1-796)
